Source: PubChem BioAssay AID686937 (Drosophila RNAi Screening Center, 2013)
Test: 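Knock-downs that reduce output of a secreted reporter enzyme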 (primary screen). System: Drosophila S2 cells expressing secreted horseradish peroxidase. Reagent: long dsRNA against Drosophila genes. Time to read-out: about 5.5 days (5 days dsRNA, then 12 h reporter induction). Challenge: reporter expression induced after 5 days of dsRNA, read 12 h later; inducer not stated. Measured: 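Chemiluminescent measurement of peroxidase in the medium 12 h after reporter induction, following 5 days of dsRNA, given as a z-score per plate; higher means more secretion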. Reading the numbers: z-score: higher = more reporter secreted into medium.
In all, the deposit lists about 23,000 reagents; below is a random part of those that have a named target and a result. 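Reduced-secretion tags in replicate 1 do not always agree with the z-scores; no criterion for assigning the tags was given.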 A plus sign joins genes that one reagent is predicted to hit. Further read-outs or replicates are left out here. Not given: the amount of reagent.

no.	target	dsRNA	z-score, replicate 1	z-score, replicate 2	z-score, replicate 3
1	CG6294 + CG6299	DRSC19980	0.44	0.33	
2	CG31815 (GeneID 318959)	DRSC01548	0.03	0.22	
3	CG15882 (GeneID 32895)	DRSC19735	0.49	0.3	
4	rgn (GeneID 40368)	DRSC11609	0.35	0.44	
5	EAChm (GeneID 39637)	DRSC10010	-0.01	0.13	
6	CG4363 (GeneID 37488)	DRSC04465	0.02	0.25	
7	Papst2 (GeneID 39914)	DRSC10924	0.38	0.37	
8	CG18449 (GeneID 35810)	DRSC06754	0.32	-0.04	
9	sip1 (GeneID 44238)	DRSC03609	-1.1	-1.31	
10	sip1 (GeneID 44238)	DRSC22648	-0.77	0.24	
11	CG13510 (GeneID 37596)	DRSC04152	0.25	0.37	
12	mamo (GeneID 32353)	DRSC19001	-5.14	-1.16	
13	mamo (GeneID 32353)	DRSC19370	0.21	0.54	
14	mamo (GeneID 32353)	DRSC19371	0.28	0.61	
15	mamo (GeneID 32353)	DRSC19372	0.23	0.32	0.31
16	mamo (GeneID 32353)	DRSC19373	0.01	0.45	0.54
17	ATPsynbetaL (GeneID 39761)	DRSC10503	0.16	0.18	
18	CG30082 (GeneID 246443)	DRSC22945	1.23	0.3	
19	CG33093 (GeneID 42654)	DRSC15775	-1.04	-0.18	
20	CG18809 (GeneID 59170)	DRSC19818	-0.15	0.32	
21	PIG-U (GeneID 34185)	DRSC02193	0.44	0.31	
22	CG42703 (GeneID 10178828)	DRSC03973	0.4	0.07	
23	Mco1 (GeneID 34258)	DRSC02720	0.47	0.26	
24	Drsl6 (GeneID 38416)	DRSC08161	0.41	0.31	
25	Hr3 (GeneID 36073)	DRSC06118	-0.2	-0.1	
26	Hr3 (GeneID 36073)	DRSC07441	0.35	0.41	
27	jvl (GeneID 41788)	DRSC13053	-2.95	-0.37	
28	jvl (GeneID 41788)	DRSC15495	0.16	0.21	
29	CG17028 (GeneID 39741)	DRSC10239	0.3	0.29	
30	CG15172 (GeneID 35167)	DRSC02473	0.28	0.25	
31	CG14196 (GeneID 32915)	DRSC19551	0.41	0.33	
32	RYa-R (GeneID 43253)	DRSC16757	0.36	0.32	
33	Dh44 (GeneID 41170)	DRSC12747	0.41	-0.6	
34	Dh44 (GeneID 41170)	DRSC16409	0.35	0.74	

No new results follow: entries from further up.
no.	target	dsRNA	z-score, replicate 1	z-score, replicate 2	z-score, replicate 3
13	mamo (GeneID 32353)	DRSC19370	0.21	0.54	
14	mamo (GeneID 32353)	DRSC19371	0.28	0.61	
15	mamo (GeneID 32353)	DRSC19372	0.23	0.32	0.31
16	mamo (GeneID 32353)	DRSC19373	0.01	0.45	0.54
17	ATPsynbetaL (GeneID 39761)	DRSC10503	0.16	0.18	
